Assay results published in patent US9249154B2, “Compounds and therapeutic use thereof for protein kinase inhibition” (priority 2008, dated 2016).

System: transplanted human colon cancer HT-99
Test: Effects on HT99 transplanted nude mice
Format: in vivo
Details: 60 mg/kg ip, d0, 1; d0 = 0 days after drug treatment; X ± SD

2-(4-chlorophenyl)-4-(3-α-thiapyranmethy)-thieno[2,3-d]pyridazine-7-carboxylic acid amide [Compound 11]
TV d0: 150 ± 15 mm^3

NC(=O)c1nnc(CC2CCNCC2)c2cc(-c3ccc(Cl)cc3)sc12 [Compound 5, 2-(4-chlorophenyl)-4-(4-piperidinemethy)-thieno[2,3-d]pyridazine-7-carboxylic acid amide]
TV d0: 150 ± 16 mm^3
